Consider one substance from PMC2824752.

Results are given in words; binding and its absence hold for the method and conditions named. Binding can be weak; no strength is given.

In this test the target is T1, Anaplasma phagocytophilum VirD4 (Anaplasma phagocytophilum) (UniProt Q8RPL3).
T1 sequence: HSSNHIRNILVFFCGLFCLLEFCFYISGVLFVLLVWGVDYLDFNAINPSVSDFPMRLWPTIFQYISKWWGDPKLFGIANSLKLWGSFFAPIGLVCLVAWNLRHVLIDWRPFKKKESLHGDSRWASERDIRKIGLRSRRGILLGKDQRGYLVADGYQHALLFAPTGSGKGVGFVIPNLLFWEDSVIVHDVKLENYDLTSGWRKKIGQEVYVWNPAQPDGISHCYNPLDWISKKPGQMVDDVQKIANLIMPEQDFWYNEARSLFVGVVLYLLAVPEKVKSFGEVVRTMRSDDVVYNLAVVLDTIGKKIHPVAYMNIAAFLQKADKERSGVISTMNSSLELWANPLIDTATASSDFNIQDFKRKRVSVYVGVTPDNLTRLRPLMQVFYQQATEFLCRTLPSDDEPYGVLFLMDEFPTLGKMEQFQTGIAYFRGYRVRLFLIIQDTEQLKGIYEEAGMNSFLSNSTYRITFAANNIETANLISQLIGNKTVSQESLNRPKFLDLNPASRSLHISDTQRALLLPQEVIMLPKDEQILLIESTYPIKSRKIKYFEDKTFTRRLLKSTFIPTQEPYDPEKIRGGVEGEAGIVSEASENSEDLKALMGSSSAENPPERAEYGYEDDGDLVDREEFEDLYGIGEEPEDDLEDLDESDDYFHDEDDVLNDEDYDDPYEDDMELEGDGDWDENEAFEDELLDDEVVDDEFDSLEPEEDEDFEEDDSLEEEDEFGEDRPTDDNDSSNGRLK
Description: two-hybrid; bacterial two-hybrid (BacterioMatch II); bait pBT-VirD4, prey pTRG random genomic DNA library of A. phagocytophilum, in E. coli reporter cells; growth on minimal medium with 5 mM 3-AT for 40 h (24 h at 37°C, then 16 h at room temperature), validated on dual selective medium with 3-AT and streptomycin.

Consider “Anaplasma phagocytophilum VirB11, residues 210-332 (domain or fragment)”, for which the binding entry is “binds”.
